PubChem BioAssay AID743454 | Peter MacCallum Cancer Centre | 2014
Purpose: 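Search for knock-downs that restore vorinostat killing in resistant colon cancer cells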 (primary screen). Cell system: human HCT116-VR colon cancer cells, selected for vorinostat resistance. Reagent: siRNA pool against human genes, 40 nM siRNA pool. Time to read-out: vorinostat for 24 h, read-out about 72 h after transfection. Challenge: vorinostat at 2.5 µM final. Read-out: 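Two measures, CellTiter-Fluor viability and luminescent caspase 3/7 activity, each as fold change against same-plate mock wells, mean of duplicates, then screen-wide robust z-score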. Direction: viability robust z-score: higher = more viable cells than screen typical; caspase robust z-score: higher = more caspase 3/7 activity than screen typical. Rule for the call: 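Hits are knock-downs in viability class RV1/RV2 or caspase class CA1/CA2, excluding ones that killed cells in the no-drug cell-count arm; hits then retested with single siRNAs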.
The deposit covers about 18,000 reagents; this is a random part of them. 450 of all reagents (2.5%) count as active. 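Single biological run; no consistent viability z cut-off exists, so the class columns, not z-scores, define the calls.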 Reagent sequences are not shown.

| target | PubChem SID | viability hit class | caspase hit class | viability robust z-score | caspase robust z-score | Outcome |
| --- | --- | --- | --- | --- | --- | --- |
| URGCP (upregulator of cell proliferation) | SID152150473 | no change | no change | -0.37 | -0.59 | inactive |
| DCX (doublecortin) | SID134315472 | no change | no change | 0.46 | -0.57 | inactive |
| NTN1 (netrin 1) | SID135622228 | RV2 (reduced viability) | no change | -4.04 | 0.95 | active |
| DENND4C (DENN domain containing 4C) | SID152155829 | no change | no change | -0.13 | -0.95 | inactive |
| TTC23L (tetratricopeptide repeat domain 23 like) | SID152155402 | no change | no change | -1.15 | 0.56 | inactive |
| FOXN1 (forkhead box N1) | SID134314451 | no change | no change | -0.4 | 0.38 | inactive |
| RNASE13 (ribonuclease A family member 13 (inactive)) | SID135625310 | no change | no change | -0.66 | 0.08 | inactive |
| RPS27A (ribosomal protein S27a) | SID134317932 | no change | no change | -4.06 | -1.88 | inactive |
| MRPS25 (mitochondrial ribosomal protein S25) | SID134314772 | no change | no change | 1.1 | 1.68 | inactive |
| CCT8L1P (chaperonin containing TCP1 subunit 8 like 1, pseudogene) | SID152154348 | no change | no change | 0.63 | -0.46 | inactive |
| LRRC52 (leucine rich repeat containing 52) | SID152147580 | no change | no change | 0.49 | -0.32 | inactive |
| MCF2L2 (MCF.2 cell line derived transforming sequence-like 2) | SID134314072 | no change | no change | 0.02 | -0.98 | inactive |
| RBP1 (retinol binding protein 1) | SID56478640 | no change | no change | 1 | -0.74 | inactive |
| UQCRC2 (ubiquinol-cytochrome c reductase core protein 2) | SID152151576 | no change | no change | 0.7 | -1 | inactive |
| LYRM7 (LYR motif containing 7) | SID152152011 | no change | no change | -0.06 | -0.16 | inactive |
| USF3 (upstream transcription factor family member 3) | SID152152371 | no change | no change | -0.91 | -0.16 | inactive |
| MMP3 (matrix metallopeptidase 3) | SID152155208 | no change | no change | 0.32 | 0.08 | inactive |
| L3MBTL3 (L3MBTL histone methyl-lysine binding protein 3) | SID152150790 | no change | no change | 0.56 | -0.26 | inactive |
| ZNF214 (zinc finger protein 214) | SID152155273 | no change | no change | 1.52 | -0.82 | inactive |
| SOX30 (SRY-box transcription factor 30) | SID134316631 | no change | no change | 1.31 | 0.28 | inactive |
| IGF2BP3 (insulin like growth factor 2 mRNA binding protein 3) | SID134310194 | no change | no change | -1.21 | 0.08 | inactive |
| CEP128 (centrosomal protein 128) | SID135625224 | no change | no change | 1.48 | -0.28 | inactive |
| FBXW8 (F-box and WD repeat domain containing 8) | SID135622320 | no change | no change | -0.25 | 2.06 | inactive |
| ITPRIP (inositol 1,4,5-trisphosphate receptor interacting protein) | SID135622887 | no change | no change | 0.82 | 0.46 | inactive |
| TLE6 (TLE family member 6, subcortical maternal complex member) | SID134318591 | no change | no change | 1.3 | -0.36 | inactive |
| PCDHB8 (protocadherin beta 8) | SID134317511 | no change | no change | -0.04 | -0.85 | inactive |
| B9D2 (B9 domain containing 2) | SID134318745 | no change | no change | 1.38 | 0.36 | inactive |
| GINS2 (GINS complex subunit 2) | SID134324124 | no change | no change | -0.76 | -1.06 | inactive |
| FCER1A (Fc epsilon receptor Ia) | SID134315982 | no change | no change | -1.77 | 1.92 | inactive |
| NUDT18 (nudix hydrolase 18) | SID135622750 | no change | no change | 1.16 | -0.19 | inactive |
| NFYA (nuclear transcription factor Y subunit alpha) | SID134313982 | no change | CA1 (caspase activation) | -0.99 | 6.4 | active |
| PGAM4 (phosphoglycerate mutase family member 4) | SID135625349 | no change | no change | 0.1 | -1.03 | inactive |
| ST6GALNAC4 (ST6 N-acetylgalactosaminide alpha-2,6-sialyltransferase 4) | SID152151082 | no change | no change | -0.54 | -0.03 | inactive |
| MATN1 (matrilin 1) | SID134315674 | no change | no change | 1.09 | 0.52 | inactive |
| EFNB2 (ephrin B2) | SID134310001 | no change | no change | 0.54 | -0.08 | inactive |
| SPRR2B (small proline rich protein 2B) | SID135623817 | no change | no change | 0.2 | 0 | inactive |
| KCTD16 (potassium channel tetramerization domain containing 16) | SID152147632 | no change | no change | 0.27 | -0.48 | inactive |
| AIRIM (AFG2 interacting ribosome maturation factor) | SID135624069 | no change | no change | 0.44 | 0.02 | inactive |
| ZNHIT6 (zinc finger HIT-type containing 6) | SID134320314 | no change | no change | -1.62 | -0.35 | inactive |
| DDX18 (DEAD-box helicase 18) | SID134317676 | RV2 (reduced viability) | no change | -3.34 | 0.92 | active |
| ATG10 (autophagy related 10) | SID152149967 | no change | no change | -0.85 | -0.4 | inactive |
| CATSPERT (catsper channel auxiliary subunit tau) | SID152146934 | RV2 (reduced viability) | no change | -3.19 | 2.3 | active |
| TMEM92 (transmembrane protein 92) | SID134320844 | no change | no change | 1.89 | 0.94 | inactive |
| STRN4 (striatin 4) | SID152156652 | no change | no change | -0.03 | 2.13 | inactive |
| SLC22A11 | SID134312491 | no change | no change | -0.55 | 1.57 | inactive |
| MFSD2A (MFSD2 lysolipid transporter A, lysophospholipid) | SID134319066 | no change | no change | -0.52 | -0.6 | inactive |
| AIP (AHR interacting HSP90 co-chaperone) | SID134311732 | no change | no change | -0.18 | -0.02 | inactive |
| HTR5A (5-hydroxytryptamine receptor 5A) | SID135621038 | no change | no change | 0.35 | -0.76 | inactive |
| POLA2 (DNA polymerase alpha 2, accessory subunit) | SID134320039 | no change | no change | -1.2 | -0.03 | inactive |
| NXNL1 (nucleoredoxin like 1) | SID134319529 | no change | no change | 0.2 | 0.72 | inactive |
| ZCCHC8 (zinc finger CCHC-type containing 8) | SID134324645 | no change | no change | 1 | -0.78 | inactive |
| SLC17A2 | SID152152877 | no change | no change | 0.96 | -0.12 | inactive |
| CA13 (carbonic anhydrase 13) | SID134326886 | no change | no change | -0.65 | 1.15 | inactive |
| PUSL1 (pseudouridine synthase like 1) | SID152152412 | no change | no change | -0.6 | -0.03 | inactive |
| SPG11 (SPG11 vesicle trafficking associated, spatacsin) | SID152151195 | no change | no change | -0.29 | -0.06 | inactive |
| ERMP1 (endoplasmic reticulum metallopeptidase 1) | SID152154055 | no change | no change | 0.98 | -0.94 | inactive |
| GABRA6 (gamma-aminobutyric acid type A receptor subunit alpha6) | SID152149370 | no change | no change | 0.68 | 3.17 | inactive |
| GAGE2E (G antigen 2E) | SID134316709 | no change | no change | 0.36 | -0.79 | inactive |
| CPAMD8 (C3 and PZP like alpha-2-macroglobulin domain containing 8) | SID135622628 | no change | no change | 1.88 | 0.17 | inactive |
| ZNF540 (zinc finger protein 540) | SID134320444 | no change | no change | 0.49 | -0.16 | inactive |
| ZNF391 (zinc finger protein 391) | SID152148067 | no change | no change | 0.68 | 0.52 | inactive |
| RABGGTB (Rab geranylgeranyltransferase subunit beta) | SID152148500 | no change | no change | 1.18 | -0.74 | inactive |
| LDB3 (LIM domain binding 3) | SID135624555 | no change | no change | -0.12 | -0.7 | inactive |
| ETV1 (ETS variant transcription factor 1) | SID135620740 | no change | no change | 1.18 | -0.2 | inactive |
| FRZB (frizzled related protein) | SID134323907 | no change | no change | -0.22 | 1.11 | inactive |
| UBALD2 (UBA like domain containing 2) | SID134322768 | no change | no change | 0.46 | -0.3 | inactive |
| GPR82 (G protein-coupled receptor 82) | SID134311042 | no change | no change | -0.4 | 0.43 | inactive |
| C12orf57 (chromosome 12 open reading frame 57) | SID134319621 | no change | no change | 1.58 | 1.44 | inactive |
| IGFALS | SID135622017 | no change | no change | -1.12 | 2.24 | inactive |
| KCNB2 (potassium voltage-gated channel subfamily B member 2) | SID134311637 | no change | no change | 0.34 | -0.44 | inactive |
| TRIM46 (tripartite motif containing 46) | SID134312194 | no change | no change | -2.06 | 3.62 | inactive |
| SEMA6C (semaphorin 6C) | SID152147131 | no change | no change | 0.4 | -0.44 | inactive |
| HPS3 (HPS3 biogenesis of lysosomal organelles complex 2 subunit 1) | SID134321250 | no change | no change | 0.44 | -0.46 | inactive |

Ordered by “caspase robust z-score” (low to high): 12 of the entries above
| target | PubChem SID | viability hit class | caspase hit class | viability robust z-score | caspase robust z-score | Outcome |
| --- | --- | --- | --- | --- | --- | --- |
| MFSD2A (MFSD2 lysolipid transporter A, lysophospholipid) | SID134319066 | no change | no change | -0.52 | -0.6 | inactive |
| KCTD16 (potassium channel tetramerization domain containing 16) | SID152147632 | no change | no change | 0.27 | -0.48 | inactive |
| ATG10 (autophagy related 10) | SID152149967 | no change | no change | -0.85 | -0.4 | inactive |
| ZNHIT6 (zinc finger HIT-type containing 6) | SID134320314 | no change | no change | -1.62 | -0.35 | inactive |
| EFNB2 (ephrin B2) | SID134310001 | no change | no change | 0.54 | -0.08 | inactive |
| SPRR2B (small proline rich protein 2B) | SID135623817 | no change | no change | 0.2 | 0 | inactive |
| AIRIM (AFG2 interacting ribosome maturation factor) | SID135624069 | no change | no change | 0.44 | 0.02 | inactive |
| DDX18 (DEAD-box helicase 18) | SID134317676 | RV2 (reduced viability) | no change | -3.34 | 0.92 | active |
| TMEM92 (transmembrane protein 92) | SID134320844 | no change | no change | 1.89 | 0.94 | inactive |
| SLC22A11 | SID134312491 | no change | no change | -0.55 | 1.57 | inactive |
| STRN4 (striatin 4) | SID152156652 | no change | no change | -0.03 | 2.13 | inactive |
| CATSPERT (catsper channel auxiliary subunit tau) | SID152146934 | RV2 (reduced viability) | no change | -3.19 | 2.3 | active |
